PubChem BioAssay AID686938, Drosophila RNAi Screening Center – 2013
Aim: 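Looking for CRAC channel components and the factors controlling them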 (primary screen). System: Drosophila S2R+ cells. Reagents: long dsRNA against Drosophila genes, about 0.25 µg dsRNA per well, roughly 10,000 cells. Duration: 5 days of knock-down before the calcium assay. Conditions: thapsigargin (SERCA pump blocker) to empty calcium stores; entry signal taken 4 min after adding it. Measured: 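Per-well fluo-4 fluorescence in two replicates, unnormalised, measured in resting cells and 4 min after store depletion by the SERCA blocker thapsigargin; ratio of the two present in few wells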. Reading the numbers: calcium entry signal: higher = stronger calcium signal after store depletion; entry to resting ratio: higher = more calcium entry relative to resting level; resting calcium signal: higher = higher resting calcium signal. Units: calcium entry signal in fluorescence units; resting calcium signal in fluorescence units. Active means: 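Hit if the duplicate-averaged plate z-score for entry over resting signal is under −3; wells with weak total dye signal (Fmax z < −2) or more than 5 off-targets removed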. Meaning of the calls: active = strongly reduced calcium entry; inactive = no strong reduction.
The deposit covers about 23,000 reagents; this is a random part of those that have a named target and a result. Of all reagents, 75 (0.33%) were called active. 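Raw plate signals without normalisation; calls rest on plate z-scores that were not deposited; ratio present for only 364 wells.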 Names joined by + are all predicted targets of the reagent. The record does not give: the dose of the treatment.

Target gene | DRSC id | calcium entry signal, replicate 1 | calcium entry signal, replicate 2 | entry to resting ratio | resting calcium signal, replicate 1 | resting calcium signal, replicate 2 | activity call
Rilpl | DRSC18494 | 3.12e7 | 3.56e7 | – | 1.40e7 | 1.58e7 | inactive
yellow-e3 | DRSC15170 | 2.90e7 | 4.11e7 | – | 1.38e7 | 4.72e7 | inactive
CG3216 | DRSC04347 | 4.31e7 | 5.05e7 | – | 2.07e7 | 2.17e7 | inactive
CG13577 | DRSC04213 | 3.27e7 | 4.70e7 | – | 1.82e7 | 2.12e7 | inactive
CG14294 | DRSC14774 | 2.36e7 | 3.36e7 | – | 3.25e7 | 1.41e7 | inactive
CG7148 | DRSC11802 | 2.61e7 | 3.37e7 | – | 1.26e7 | 2.37e7 | inactive
Nepl14 | DRSC15631 | 5.60e7 | 5.45e7 | – | 2.60e7 | 2.33e7 | inactive
PIG-U | DRSC02193 | 4.90e7 | – | – | 2.26e7 | – | inactive
Neu2 | DRSC11819 | 2.23e7 | 3.47e7 | – | 1.05e7 | 1.49e7 | inactive
CG2641 | DRSC15441 | 4.30e7 | 3.78e7 | – | 1.98e7 | 1.63e7 | inactive
NijB | DRSC09850 | 4.52e7 | 3.10e7 | – | 2.22e7 | 1.55e7 | inactive
Pif1A + Pif1B | DRSC14142 | 5.20e7 | 4.37e7 | – | 2.43e7 | 2.01e7 | inactive
Pif1A + Pif1B | DRSC14380 | 3.27e7 | 3.69e7 | – | 1.45e7 | 1.60e7 | inactive
Pif1A + Pif1B | DRSC14381 | 5.16e7 | 4.36e7 | – | 2.72e7 | 2.04e7 | inactive
CG13594 | DRSC04229 | 4.72e7 | 4.23e7 | – | 2.33e7 | 2.01e7 | inactive
CG13594 | DRSC23254 | 3.01e7 | 4.59e7 | – | 1.71e7 | 1.94e7 | inactive
CG5149 | DRSC02819 | 4.22e7 | – | – | 1.90e7 | – | inactive
CG34041 | DRSC22276 | 3.40e7 | 6.36e7 | – | 1.67e7 | 2.96e7 | inactive
CG9175 | DRSC03153 | 4.37e7 | – | – | 2.36e7 | – | inactive
CG3982 | DRSC10394 | 2.32e7 | 2.81e7 | – | 1.24e7 | 1.33e7 | inactive
CG3982 | DRSC23139 | 3.70e7 | 3.48e7 | – | 2.01e7 | 1.74e7 | inactive
Nubp2 | DRSC11758 | 2.60e7 | 4.66e7 | – | 1.22e7 | 1.74e7 | inactive
Ugt35D1 | DRSC15107 | 3.42e7 | 4.07e7 | 2.1 | 1.62e7 | 1.74e7 | inactive
Nep4 | DRSC15539 | 4.25e7 | 3.53e7 | – | 2.20e7 | 1.65e7 | inactive
NPF | DRSC17019 | 2.26e7 | 2.89e7 | – | 1.10e7 | 5.48e7 | inactive
CG14840 | DRSC14964 | 2.50e7 | 3.03e7 | – | 1.17e7 | 3.86e7 | inactive
neur + asRNA:CR31429 | DRSC17013 | 3.27e7 | 3.81e7 | – | 1.44e7 | 1.73e7 | inactive
Ctr1B + Poxm | DRSC16245 | 3.47e7 | 2.53e7 | – | 1.59e7 | 1.32e7 | inactive
CG15117 | DRSC06539 | 2.61e7 | 2.05e7 | – | 1.22e7 | 1.09e7 | inactive
CG12661 | DRSC17864 | 3.13e7 | 3.22e7 | – | 1.58e7 | 1.56e7 | inactive
Cpr60D | DRSC04492 | 4.77e7 | 3.96e7 | – | 2.30e7 | 2.02e7 | inactive
CG14445 | DRSC17938 | 3.06e7 | 3.50e7 | – | 1.45e7 | 1.54e7 | inactive
CG31778 | DRSC00283 | 5.24e7 | – | – | 2.55e7 | – | inactive
Cyp312a1 | DRSC11128 | 3.63e7 | 6.31e7 | – | 1.77e7 | 2.39e7 | inactive
CG13398 | DRSC02268 | 3.64e7 | 4.20e7 | – | 1.84e7 | 1.93e7 | inactive
CG43278 (retired record) | DRSC17524 | 2.90e7 | 3.95e7 | – | 1.32e7 | 1.78e7 | inactive
Alp9 | DRSC10486 | 3.80e7 | 2.60e7 | – | 2.52e7 | 1.06e7 | inactive
asRNA:CR43430 + hts | DRSC07629 | 5.08e7 | 4.69e7 | – | 2.26e7 | 2.48e7 | inactive
scrt | DRSC08736 | 3.73e7 | 4.24e7 | – | 2.21e7 | 2.23e7 | inactive
scrt | DRSC23001 | 4.50e7 | 4.32e7 | – | 2.02e7 | 1.86e7 | inactive
CG3701 (retired record) | DRSC04408 | 2.35e7 | 2.24e7 | – | 1.26e7 | 1.11e7 | inactive
CG3701 (retired record) | DRSC04409 | 2.41e7 | 2.42e7 | – | 1.30e7 | 1.07e7 | inactive
Cpr76Bc | DRSC11062 | 2.54e7 | 4.91e7 | – | 1.25e7 | 1.99e7 | inactive
CG14778 | DRSC17953 | 4.44e7 | 4.71e7 | 2 | 2.24e7 | 2.04e7 | inactive
CG34430 | DRSC06499 | 3.74e7 | 3.11e7 | – | 1.75e7 | 1.54e7 | inactive
Smn | DRSC10223 | 2.51e7 | 3.84e7 | – | 1.23e7 | 2.72e7 | inactive
stac | DRSC13693 | 4.54e7 | 3.87e7 | – | 2.05e7 | 1.84e7 | inactive
stac | DRSC14392 | 4.52e7 | 3.89e7 | – | 2.27e7 | 1.73e7 | inactive
stac | DRSC22197 | 3.74e7 | 8.36e7 | – | 1.72e7 | 3.01e7 | inactive
CG14052 | DRSC17907 | 5.06e7 | 5.38e7 | 2.2 | 2.33e7 | 2.06e7 | inactive
CG14052 | DRSC18192 | 3.60e7 | 5.41e7 | 1.9 | 1.90e7 | 2.27e7 | inactive
Cpr65Ea | DRSC11027 | 3.52e7 | 4.32e7 | – | 1.65e7 | 1.89e7 | inactive
CR44003 + CG44002 | DRSC00523 | 4.66e7 | – | – | 2.68e7 | – | inactive
CR44003 + CG44002 | DRSC00606 | 2.38e7 | 2.20e7 | – | 1.25e7 | 1.13e7 | inactive
Grl62c | DRSC07964 | 3.53e7 | 3.60e7 | – | 1.60e7 | 1.73e7 | inactive
atk | DRSC11418 | 3.60e7 | 4.13e7 | – | 1.85e7 | 1.82e7 | inactive
atk | DRSC11769 | 2.95e7 | 5.13e7 | – | 1.49e7 | 2.09e7 | inactive
CG43428 | DRSC06205 | 2.75e7 | 3.96e7 | – | 1.47e7 | 1.84e7 | inactive
mRpS25 | DRSC19598 | 4.13e7 | 3.58e7 | – | 1.95e7 | 1.45e7 | inactive
Klf15 | DRSC17742 | 3.35e7 | 3.81e7 | – | 1.69e7 | 1.76e7 | inactive
Mcm5 | DRSC16735 | 3.25e7 | 3.20e7 | – | 1.77e7 | 1.72e7 | inactive
CG9173 | DRSC08635 | 3.30e7 | 4.24e7 | – | 1.65e7 | 1.84e7 | inactive
CG12691 | DRSC17880 | 3.14e7 | 3.83e7 | – | 1.52e7 | 1.75e7 | inactive
CG10638 | DRSC09762 | 2.84e7 | 2.95e7 | – | 1.60e7 | 1.31e7 | inactive
Coq8 | DRSC19900 | 3.41e7 | 4.71e7 | – | 1.81e7 | 2.34e7 | inactive
CG9578 | DRSC20694 | 4.05e7 | 3.70e7 | – | 1.93e7 | 1.79e7 | inactive
Dic61B | DRSC08588 | 3.54e7 | 4.06e7 | – | 1.75e7 | 1.97e7 | inactive
Argl + CG9515 | DRSC03243 | 6.25e7 | – | – | 2.68e7 | – | inactive
Argl + CG9515 | DRSC03245 | 3.00e7 | 4.24e7 | – | 1.40e7 | 1.84e7 | inactive
CG3880 | DRSC04428 | 4.66e7 | 4.37e7 | – | 2.28e7 | 2.01e7 | inactive
CG3880 | DRSC21404 | 3.36e7 | 3.44e7 | – | 1.80e7 | 1.61e7 | inactive
LManI | DRSC02838 | 4.86e7 | 5.55e7 | – | 2.40e7 | 2.46e7 | inactive
CG9698 | DRSC16539 | 4.04e7 | 3.24e7 | – | 1.90e7 | 1.44e7 | inactive
TAF1B | DRSC16001 | 4.19e7 | 5.15e7 | – | 1.84e7 | 2.26e7 | inactive
CG43125 | DRSC13866 | 4.01e7 | 3.57e7 | – | 1.85e7 | 1.89e7 | inactive

8 of these entries in another layout:
{"Target gene": "CG10638", "DRSC id": "DRSC09762", "calcium entry signal, replicate 1": 2.84e7, "calcium entry signal, replicate 2": 2.95e7, "resting calcium signal, replicate 1": 1.60e7, "resting calcium signal, replicate 2": 1.31e7, "activity call": "inactive"}
{"Target gene": "Coq8", "DRSC id": "DRSC19900", "calcium entry signal, replicate 1": 3.41e7, "calcium entry signal, replicate 2": 4.71e7, "resting calcium signal, replicate 1": 1.81e7, "resting calcium signal, replicate 2": 2.34e7, "activity call": "inactive"}
{"Target gene": "CG9578", "DRSC id": "DRSC20694", "calcium entry signal, replicate 1": 4.05e7, "calcium entry signal, replicate 2": 3.70e7, "resting calcium signal, replicate 1": 1.93e7, "resting calcium signal, replicate 2": 1.79e7, "activity call": "inactive"}
{"Target gene": "Dic61B", "DRSC id": "DRSC08588", "calcium entry signal, replicate 1": 3.54e7, "calcium entry signal, replicate 2": 4.06e7, "resting calcium signal, replicate 1": 1.75e7, "resting calcium signal, replicate 2": 1.97e7, "activity call": "inactive"}
{"Target gene": "Argl + CG9515", "DRSC id": "DRSC03243", "calcium entry signal, replicate 1": 6.25e7, "resting calcium signal, replicate 1": 2.68e7, "activity call": "inactive"}
{"Target gene": "Argl + CG9515", "DRSC id": "DRSC03245", "calcium entry signal, replicate 1": 3.00e7, "calcium entry signal, replicate 2": 4.24e7, "resting calcium signal, replicate 1": 1.40e7, "resting calcium signal, replicate 2": 1.84e7, "activity call": "inactive"}
{"Target gene": "CG3880", "DRSC id": "DRSC04428", "calcium entry signal, replicate 1": 4.66e7, "calcium entry signal, replicate 2": 4.37e7, "resting calcium signal, replicate 1": 2.28e7, "resting calcium signal, replicate 2": 2.01e7, "activity call": "inactive"}
{"Target gene": "CG3880", "DRSC id": "DRSC21404", "calcium entry signal, replicate 1": 3.36e7, "calcium entry signal, replicate 2": 3.44e7, "resting calcium signal, replicate 1": 1.80e7, "resting calcium signal, replicate 2": 1.61e7, "activity call": "inactive"}
